± gives the standard deviation of the averaged measurements. The list shows a part of the results.
Compound: Nc1nc2c(ncn2[C@@H]2O[C@H](COP(=O)(O)OP(=O)(O)OP(=O)(O)O)[C@@H](O)[C@H]2O)c(=O)[nH]1 [guanosine triphosphate]
Assay: NP40-soluble protein abundance relative to vehicle (solubility fold change) (ratio); higher = more soluble protein in presence of GTP
Procedure, shortened: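 Data come from three independent experiments in which Dounce-homogenised Jurkat crude lysate was treated at eight concentrations from 0.1 to 10 mM. Treatment ran 10 min at room temperature and then 3 min at 37 °C, after which 0.8% NP40 and benzonase were added for 60 min at 4 °C before ultracentrifugation. The supernatant underwent TMT labelling and LC-MS/MS, and vsn-normalised intensities were expressed as fold change against the detergent-processed vehicle in each replicate.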

By UniProt entry, the sequences of proteins in these tests, tags left out. Where a name states a change or a piece, a line headed by the entry shows the natural chain unless it says otherwise.
UniProt Q5BJH7: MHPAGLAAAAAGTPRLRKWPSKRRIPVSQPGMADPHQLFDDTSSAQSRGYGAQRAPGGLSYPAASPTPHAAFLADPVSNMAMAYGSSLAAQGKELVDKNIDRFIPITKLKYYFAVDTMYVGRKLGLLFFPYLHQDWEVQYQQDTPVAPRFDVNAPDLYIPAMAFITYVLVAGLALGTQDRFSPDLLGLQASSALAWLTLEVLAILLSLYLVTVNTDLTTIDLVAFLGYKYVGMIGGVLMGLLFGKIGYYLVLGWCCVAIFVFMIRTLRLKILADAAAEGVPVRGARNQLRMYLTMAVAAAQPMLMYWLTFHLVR
UniProt Q96EP5: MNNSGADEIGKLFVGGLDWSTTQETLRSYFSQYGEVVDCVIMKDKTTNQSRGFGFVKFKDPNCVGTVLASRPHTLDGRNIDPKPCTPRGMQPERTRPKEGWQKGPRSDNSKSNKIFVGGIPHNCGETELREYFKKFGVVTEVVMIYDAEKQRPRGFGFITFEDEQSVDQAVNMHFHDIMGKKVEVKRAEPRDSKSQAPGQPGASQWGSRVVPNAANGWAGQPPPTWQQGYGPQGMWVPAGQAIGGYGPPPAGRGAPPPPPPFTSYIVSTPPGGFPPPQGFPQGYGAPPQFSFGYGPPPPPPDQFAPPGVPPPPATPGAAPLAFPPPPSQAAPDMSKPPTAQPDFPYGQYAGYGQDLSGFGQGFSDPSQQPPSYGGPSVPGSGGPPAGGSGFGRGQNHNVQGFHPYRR
UniProt Q07955, whole entry: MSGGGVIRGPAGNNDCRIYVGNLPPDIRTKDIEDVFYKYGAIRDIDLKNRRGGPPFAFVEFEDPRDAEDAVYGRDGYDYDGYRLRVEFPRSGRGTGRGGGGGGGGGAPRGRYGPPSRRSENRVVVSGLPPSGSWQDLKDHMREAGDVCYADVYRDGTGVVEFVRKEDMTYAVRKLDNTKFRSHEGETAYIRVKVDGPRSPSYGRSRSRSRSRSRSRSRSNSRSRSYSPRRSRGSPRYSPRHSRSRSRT
UniProt Q14204, whole entry: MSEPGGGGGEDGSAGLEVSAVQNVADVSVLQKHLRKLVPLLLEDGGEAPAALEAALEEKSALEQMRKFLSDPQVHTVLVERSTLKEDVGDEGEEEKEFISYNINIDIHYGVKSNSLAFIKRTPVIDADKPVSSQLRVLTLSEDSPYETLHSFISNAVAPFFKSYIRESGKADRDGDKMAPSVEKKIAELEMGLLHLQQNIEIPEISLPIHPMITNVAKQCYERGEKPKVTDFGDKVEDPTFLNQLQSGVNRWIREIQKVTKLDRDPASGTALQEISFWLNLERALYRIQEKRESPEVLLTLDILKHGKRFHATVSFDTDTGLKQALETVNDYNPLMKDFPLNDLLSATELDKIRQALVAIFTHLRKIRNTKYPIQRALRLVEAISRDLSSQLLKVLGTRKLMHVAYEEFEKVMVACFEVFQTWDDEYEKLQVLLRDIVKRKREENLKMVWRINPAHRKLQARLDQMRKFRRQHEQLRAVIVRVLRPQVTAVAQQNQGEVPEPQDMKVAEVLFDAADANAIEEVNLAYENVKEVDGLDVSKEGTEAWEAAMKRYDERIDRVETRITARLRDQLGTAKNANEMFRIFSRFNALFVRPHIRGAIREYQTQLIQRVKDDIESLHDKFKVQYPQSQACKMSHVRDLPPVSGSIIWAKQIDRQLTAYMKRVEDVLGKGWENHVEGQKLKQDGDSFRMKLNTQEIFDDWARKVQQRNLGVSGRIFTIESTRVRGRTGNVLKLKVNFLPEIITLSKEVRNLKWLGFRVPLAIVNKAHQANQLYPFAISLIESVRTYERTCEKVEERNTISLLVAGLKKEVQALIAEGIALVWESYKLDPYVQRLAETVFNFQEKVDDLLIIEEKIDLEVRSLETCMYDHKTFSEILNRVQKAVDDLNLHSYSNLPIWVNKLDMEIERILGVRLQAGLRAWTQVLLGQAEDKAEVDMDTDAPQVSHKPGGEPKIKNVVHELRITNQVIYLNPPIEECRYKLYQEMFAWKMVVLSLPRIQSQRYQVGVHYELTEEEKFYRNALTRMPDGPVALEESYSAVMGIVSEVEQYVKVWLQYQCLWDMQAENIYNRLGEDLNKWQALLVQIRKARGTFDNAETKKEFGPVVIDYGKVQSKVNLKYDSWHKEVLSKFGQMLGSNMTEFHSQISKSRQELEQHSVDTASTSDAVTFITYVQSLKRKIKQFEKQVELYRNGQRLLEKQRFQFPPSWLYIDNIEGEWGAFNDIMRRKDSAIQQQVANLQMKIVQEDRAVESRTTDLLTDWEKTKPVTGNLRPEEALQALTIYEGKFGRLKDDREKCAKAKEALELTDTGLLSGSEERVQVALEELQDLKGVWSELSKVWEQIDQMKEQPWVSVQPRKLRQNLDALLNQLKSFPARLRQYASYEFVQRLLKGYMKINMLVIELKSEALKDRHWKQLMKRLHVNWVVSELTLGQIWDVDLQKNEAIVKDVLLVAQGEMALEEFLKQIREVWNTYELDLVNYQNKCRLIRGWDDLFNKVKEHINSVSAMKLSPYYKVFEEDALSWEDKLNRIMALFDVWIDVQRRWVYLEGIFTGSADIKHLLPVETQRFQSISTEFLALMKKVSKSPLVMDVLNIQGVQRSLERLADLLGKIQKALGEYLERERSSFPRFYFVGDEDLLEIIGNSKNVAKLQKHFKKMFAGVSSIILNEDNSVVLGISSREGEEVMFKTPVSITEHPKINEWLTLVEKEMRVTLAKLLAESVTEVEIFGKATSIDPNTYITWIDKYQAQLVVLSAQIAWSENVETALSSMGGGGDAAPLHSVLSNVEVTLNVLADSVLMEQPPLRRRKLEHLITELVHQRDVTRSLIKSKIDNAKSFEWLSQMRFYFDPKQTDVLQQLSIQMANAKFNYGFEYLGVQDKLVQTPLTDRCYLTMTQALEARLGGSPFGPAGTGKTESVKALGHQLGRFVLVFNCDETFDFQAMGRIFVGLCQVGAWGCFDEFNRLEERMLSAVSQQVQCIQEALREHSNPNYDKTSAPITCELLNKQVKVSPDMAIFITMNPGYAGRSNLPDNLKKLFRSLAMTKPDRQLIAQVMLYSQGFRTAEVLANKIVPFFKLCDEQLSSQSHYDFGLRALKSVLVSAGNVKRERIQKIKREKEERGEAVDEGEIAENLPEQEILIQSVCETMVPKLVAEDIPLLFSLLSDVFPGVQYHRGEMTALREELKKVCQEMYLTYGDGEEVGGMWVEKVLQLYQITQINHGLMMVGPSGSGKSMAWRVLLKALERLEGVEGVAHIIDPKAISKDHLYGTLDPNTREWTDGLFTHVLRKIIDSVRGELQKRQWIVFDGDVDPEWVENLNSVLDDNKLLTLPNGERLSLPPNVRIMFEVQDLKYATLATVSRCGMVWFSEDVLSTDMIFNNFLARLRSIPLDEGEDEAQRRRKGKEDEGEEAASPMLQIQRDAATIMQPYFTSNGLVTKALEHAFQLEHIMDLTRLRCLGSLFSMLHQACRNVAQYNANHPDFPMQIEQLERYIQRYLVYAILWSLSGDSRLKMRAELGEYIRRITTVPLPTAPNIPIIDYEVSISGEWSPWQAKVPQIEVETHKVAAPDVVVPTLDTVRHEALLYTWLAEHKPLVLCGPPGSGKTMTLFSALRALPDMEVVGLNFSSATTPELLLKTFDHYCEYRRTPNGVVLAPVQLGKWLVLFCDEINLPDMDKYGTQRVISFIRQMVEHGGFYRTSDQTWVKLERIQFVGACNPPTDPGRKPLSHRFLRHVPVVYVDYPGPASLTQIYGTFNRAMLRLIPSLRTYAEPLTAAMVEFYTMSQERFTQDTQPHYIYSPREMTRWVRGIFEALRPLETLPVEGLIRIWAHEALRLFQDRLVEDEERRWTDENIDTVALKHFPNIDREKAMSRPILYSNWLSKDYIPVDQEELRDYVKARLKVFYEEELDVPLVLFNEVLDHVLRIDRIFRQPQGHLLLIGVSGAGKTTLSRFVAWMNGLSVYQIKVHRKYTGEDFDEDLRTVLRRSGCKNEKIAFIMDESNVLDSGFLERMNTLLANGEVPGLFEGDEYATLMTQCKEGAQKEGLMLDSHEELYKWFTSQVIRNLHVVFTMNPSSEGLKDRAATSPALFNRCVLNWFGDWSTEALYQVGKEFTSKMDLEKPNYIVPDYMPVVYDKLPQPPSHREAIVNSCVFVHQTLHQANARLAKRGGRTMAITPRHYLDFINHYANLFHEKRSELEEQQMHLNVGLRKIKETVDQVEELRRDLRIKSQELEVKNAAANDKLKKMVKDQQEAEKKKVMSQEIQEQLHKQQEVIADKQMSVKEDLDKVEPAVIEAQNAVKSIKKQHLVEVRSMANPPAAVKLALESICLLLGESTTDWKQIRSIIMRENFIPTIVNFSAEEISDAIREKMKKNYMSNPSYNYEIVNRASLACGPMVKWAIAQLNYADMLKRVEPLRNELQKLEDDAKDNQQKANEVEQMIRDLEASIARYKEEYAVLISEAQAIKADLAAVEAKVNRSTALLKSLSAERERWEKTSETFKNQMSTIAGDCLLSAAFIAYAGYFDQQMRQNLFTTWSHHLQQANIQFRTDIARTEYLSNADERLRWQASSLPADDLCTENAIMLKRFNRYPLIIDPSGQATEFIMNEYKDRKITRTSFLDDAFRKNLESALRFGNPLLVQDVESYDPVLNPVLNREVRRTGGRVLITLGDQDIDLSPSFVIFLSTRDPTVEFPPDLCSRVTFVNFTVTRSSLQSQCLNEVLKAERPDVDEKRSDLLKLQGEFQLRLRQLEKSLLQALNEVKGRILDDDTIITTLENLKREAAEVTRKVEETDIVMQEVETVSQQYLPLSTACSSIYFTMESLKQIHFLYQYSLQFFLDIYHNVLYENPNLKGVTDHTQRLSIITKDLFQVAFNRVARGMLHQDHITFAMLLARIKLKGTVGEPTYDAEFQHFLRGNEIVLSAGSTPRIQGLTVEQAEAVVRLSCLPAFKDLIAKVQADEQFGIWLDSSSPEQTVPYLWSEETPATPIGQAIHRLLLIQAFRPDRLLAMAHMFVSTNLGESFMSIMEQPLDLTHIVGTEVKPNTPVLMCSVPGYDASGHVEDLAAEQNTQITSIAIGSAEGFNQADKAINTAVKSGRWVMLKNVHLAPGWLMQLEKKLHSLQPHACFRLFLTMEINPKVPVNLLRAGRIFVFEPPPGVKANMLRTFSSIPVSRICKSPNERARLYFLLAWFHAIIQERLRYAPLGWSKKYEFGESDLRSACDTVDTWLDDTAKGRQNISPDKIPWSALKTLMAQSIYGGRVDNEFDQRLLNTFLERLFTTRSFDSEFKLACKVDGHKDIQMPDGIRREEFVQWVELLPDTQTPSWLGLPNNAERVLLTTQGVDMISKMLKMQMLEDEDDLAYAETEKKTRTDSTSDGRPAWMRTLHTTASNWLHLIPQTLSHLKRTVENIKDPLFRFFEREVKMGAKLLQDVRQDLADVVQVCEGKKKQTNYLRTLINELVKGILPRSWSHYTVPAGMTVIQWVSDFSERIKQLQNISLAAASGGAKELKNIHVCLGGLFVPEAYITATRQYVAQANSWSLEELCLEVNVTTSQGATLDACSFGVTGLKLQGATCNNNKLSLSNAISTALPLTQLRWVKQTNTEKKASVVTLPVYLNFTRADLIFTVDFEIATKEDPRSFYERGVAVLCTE
UniProt Q96ND0: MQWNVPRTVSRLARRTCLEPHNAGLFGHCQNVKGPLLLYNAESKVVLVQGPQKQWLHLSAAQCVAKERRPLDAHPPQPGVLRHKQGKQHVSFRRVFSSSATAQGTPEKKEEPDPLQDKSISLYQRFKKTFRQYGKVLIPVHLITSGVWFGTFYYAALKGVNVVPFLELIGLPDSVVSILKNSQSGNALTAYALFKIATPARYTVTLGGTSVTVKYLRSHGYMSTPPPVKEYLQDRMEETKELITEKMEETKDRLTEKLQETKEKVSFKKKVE
UniProt Q99640: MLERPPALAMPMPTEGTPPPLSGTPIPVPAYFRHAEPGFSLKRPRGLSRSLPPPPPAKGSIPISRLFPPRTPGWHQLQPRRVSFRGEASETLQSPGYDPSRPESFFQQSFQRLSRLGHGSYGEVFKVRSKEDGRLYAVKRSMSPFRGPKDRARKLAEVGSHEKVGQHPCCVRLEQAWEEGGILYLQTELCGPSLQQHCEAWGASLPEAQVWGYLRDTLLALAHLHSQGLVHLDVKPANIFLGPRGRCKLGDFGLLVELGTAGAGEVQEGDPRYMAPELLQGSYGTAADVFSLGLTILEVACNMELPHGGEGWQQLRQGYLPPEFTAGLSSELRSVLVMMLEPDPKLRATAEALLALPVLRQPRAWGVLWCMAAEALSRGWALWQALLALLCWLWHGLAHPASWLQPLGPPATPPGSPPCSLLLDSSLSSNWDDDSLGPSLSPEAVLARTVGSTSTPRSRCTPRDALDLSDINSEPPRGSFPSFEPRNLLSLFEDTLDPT
UniProt O60232: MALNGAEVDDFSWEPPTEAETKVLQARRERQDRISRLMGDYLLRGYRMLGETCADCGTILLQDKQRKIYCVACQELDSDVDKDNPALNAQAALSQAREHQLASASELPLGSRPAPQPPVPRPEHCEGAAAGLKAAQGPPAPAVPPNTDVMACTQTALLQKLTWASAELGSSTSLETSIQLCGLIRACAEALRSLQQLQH

Target | NP40-soluble protein abundance (concentration: 0.1mM) | NP40-soluble protein abundance (concentration: 0.5mM) | NP40-soluble protein abundance (concentration: 1mM) | NP40-soluble protein abundance (concentration: 2mM) | NP40-soluble protein abundance (concentration: 4mM) | NP40-soluble protein abundance (concentration: 6mM) | NP40-soluble protein abundance (concentration: 8mM) | NP40-soluble protein abundance (concentration: 10mM)
H3BRI5 and related entries (UniProt O95149) | 1.14 ± 0.062 | 1.03 ± 0.061 | 0.971 ± 0.09 | 1.01 ± 0.092 | 0.967 ± 0.13 | 0.962 ± 0.099 | 0.8957 ± 0.0036 | 0.877 ± 0.073
H0Y6Y6 and related entries (UniProt P29017) | 0.943 ± 0.014 | 0.865 ± 0.045 | 0.934 ± 0.025 | 0.909 ± 0.035 | 0.91 ± 0.061 | 0.881 ± 0.062 | 0.888 ± 0.089 | 0.896 ± 0.032
H3BRL3 and related entries (UniProt O14562) | 0.9509 ± 0.0069 | 0.971 ± 0.079 | 1.02 ± 0.057 | 0.964 ± 0.08 | 0.945 ± 0.067 | 0.956 ± 0.1 | 0.959 ± 0.065 | 0.999 ± 0.085
K7ERQ0 and related entries (UniProt Q5BJH7) | 1.05 ± 0.24 | 1.08 ± 0.037 | 1.02 ± 0.15 | 1.03 ± 0.022 | 1.08 ± 0.1 | 0.9931 ± 0.0031 | 0.915 ± 0.025 | 0.968 ± 0.11
K7EK33 and related entries (UniProt Q96EP5) | 0.908 ± 0.11 | 0.947 ± 0.08 | 0.953 ± 0.095 | 0.912 ± 0.12 | 0.866 ± 0.12 | 0.898 ± 0.095 | 0.924 ± 0.072 | 0.93 ± 0.076
H3BPB8 and related entries (UniProt P34949) | 0.967 ± 0.098 | 1.02 ± 0.1 | 0.995 ± 0.15 | 0.991 ± 0.098 | 0.978 ± 0.15 | 0.94 ± 0.097 | 0.943 ± 0.13 | 0.945 ± 0.11
H0YC67 and related entries (UniProt Q96DB5) | 0.926 ± 0.025 | 0.873 ± 0.023 | 0.924 ± 0.011 | 0.926 ± 0.01 | 0.899 ± 0.036 | 0.901 ± 0.031 | 0.819 ± 0.08 | 0.872 ± 0.06
H0YNP1 and related entries (UniProt O94923) | 0.9085 ± 0.0029 | 0.92 ± 0.096 | 0.897 ± 0.022 | 0.851 ± 0.082 | 0.827 ± 0.19 | 0.892 ± 0.13 | 0.841 ± 0.066 | 0.815 ± 0.12
H0YFA4 and related entries (UniProt P52943) | 0.889 ± 0.045 | 0.847 ± 0.018 | 0.955 ± 0.029 | 0.904 ± 0.028 | 0.952 ± 0.033 | 0.921 ± 0.047 | 0.955 ± 0.071 | 0.996 ± 0.017
I3L2M1 and related entries (UniProt Q8WYJ6) | 0.998 ± 0.041 | 0.995 ± 0.026 | 0.991 ± 0.033 | 0.958 ± 0.037 | 0.985 ± 0.038 | 0.957 ± 0.016 | 0.971 ± 0.029 | 0.96 ± 0.024
H0Y4W2 and related entries (UniProt Q9Y4A5) | 1.066 ± 0.0081 | 1.07 ± 0.11 | 1.07 ± 0.096 | 1.15 ± 0.17 | 1.25 ± 0.25 | 1.16 ± 0.21 | 1.19 ± 0.15 | 1.15 ± 0.12
G5E9V5 and related entries (UniProt P82650) | 1.07 ± 0.069 | 1.13 ± 0.18 | 1.22 ± 0.22 | 1.26 ± 0.25 | 1.29 ± 0.28 | 1.24 ± 0.28 | 1.24 ± 0.31 | 1.13 ± 0.27
K7EIK7 and related entries (UniProt O95834) | 0.977 ± 0.053 | 1.01 ± 0.059 | 0.885 ± 0.044 | 0.9 ± 0.021 | 0.878 ± 0.028 | 0.914 ± 0.021 | 0.833 ± 0.031 | 0.855 ± 0.045
J3KTL2 and related entries (UniProt Q07955) | 0.955 ± 0.057 | 1.09 ± 0.095 | 1.26 ± 0.046 | 1.24 ± 0.097 | 1.25 ± 0.038 | 1.38 ± 0.044 | 1.53 ± 0.14 | 1.53 ± 0.16
K7EIY1 and related entries (UniProt Q9Y421) | 1.045 ± 0.0048 | 0.987 ± 0.15 | 1.07 ± 0.11 | 1.14 ± 0.14 | 1.25 ± 0.12 | 1.21 ± 0.2 | 1.24 ± 0.11 | 1.37 ± 0.088
J3KNZ9 (UniProt Q9HAH7) | 1.01 ± 0.12 | 0.933 ± 0.095 | 0.978 ± 0.056 | 0.984 ± 0.061 | 0.971 ± 0.051 | 1.01 ± 0.05 | 1.02 ± 0.015 | 1.01 ± 0.061
H0YJ21 and related entries (UniProt Q14204) | 1.1 ± 0.088 | 1.16 ± 0.15 | 1.07 ± 0.14 | 1.15 ± 0.22 | 1.17 ± 0.21 | 1.15 ± 0.23 | 1.1 ± 0.17 | 1.04 ± 0.17
K7EPJ5 and related entries (UniProt O60291) | 1.2 ± 0.14 | 1.12 ± 0.11 | 1.12 ± 0.22 | 1.12 ± 0.039 | 1.05 ± 0.095 | 1.11 ± 0.044 | 1.13 ± 0.026 | 0.885 ± 0.23
K7EK00 and related entries (UniProt Q96ND0) | 0.946 ± 0.018 | 0.904 ± 0.09 | 0.933 ± 0.027 | 0.937 ± 0.033 | 0.946 ± 0.024 | 0.934 ± 0.069 | 0.916 ± 0.036 | 0.8929 ± 0.0026
I3L3P0 and related entries (UniProt Q99640) | 1.07 ± 0.041 | 1.03 ± 0.032 | 1.08 ± 0.049 | 1.02 ± 0.051 | 0.953 ± 0.082 | 0.973 ± 0.032 | 1.03 ± 0.023 | 0.957 ± 0.045
I3L3N5 and related entries (UniProt P43034) | 0.977 ± 0.014 | 0.987 ± 0.054 | 0.91 ± 0.018 | 0.921 ± 0.023 | 0.915 ± 0.0099 | 0.9 ± 0.03 | 0.909 ± 0.044 | 0.885 ± 0.027
J3QS41 and related entries (UniProt P42694) | 1.04 ± 0.024 | 1.06 ± 0.024 | 1.06 ± 0.049 | 1.032 ± 0.01 | 1.06 ± 0.012 | 1.06 ± 0.034 | 1.09 ± 0.025 | 1.05 ± 0.037
H3BM79 and related entries (UniProt Q9H8T0) | 1.11 ± 0.1 | 0.965 ± 0.14 | 1.02 ± 0.043 | 1.08 ± 0.11 | 0.969 ± 0.18 | 1.04 ± 0.11 | 1.06 ± 0.19 | 0.994 ± 0.14
H0YEB6 and related entries (UniProt O60232) | 1.13 ± 0.12 | 1.07 ± 0.063 | 1.06 ± 0.082 | 1.06 ± 0.11 | 1.12 ± 0.1 | 1.05 ± 0.08 | 1.18 ± 0.13 | 1.14 ± 0.17
H0YN26 and related entries (UniProt P39687) | 0.904 ± 0.016 | 0.84 ± 0.017 | 1.03 ± 0.059 | 0.928 ± 0.025 | 0.976 ± 0.061 | 0.939 ± 0.025 | 1.01 ± 0.06 | 1.01 ± 0.033
K7EQV2 and related entries (UniProt O95707) | 1.06 ± 0.04 | 1.11 ± 0.087 | 1.05 ± 0.12 | 1.04 ± 0.074 | 1.06 ± 0.13 | 1.15 ± 0.18 | 1.15 ± 0.11 | 1.13 ± 0.16

As entered above.
In NP40-soluble protein abundance (concentration: 6mM), G5E9V5 and related entries (UniProt P82650) has 1.24 ± 0.28
In NP40-soluble protein abundance (concentration: 0.1mM), K7ERQ0 and related entries (UniProt Q5BJH7) has 1.05 ± 0.24
